Reference: patent US12195442B2, “(Hetero)arylimidazole compound and harmful organism control agent” (Nippon Soda Co., Ltd., priority 2018, dated 2025)
Some of these results come from one statement about several compounds together. For some assays here: For at least one compound, name, drawing or mass did not settle the structure.

Tests used:
Assay type in all cases: in vivo
[1] = system: Aphis craccivora; test: Test Example 5: efficacy on Aphis craccivora (spray on black-eyed peas); details: 125 ppm; sprayed to black-eyed peas parasitized by nymphs; after 4 days
[2] = system: Plutella xylostella; test: Test Example 3: efficacy on Plutella xylostella (cabbage leaf dip); details: 125 ppm; cabbage leaves dipped 30 seconds; second instar larvae; after 3 days
[3] = system: Phyllotreta striolata adults; test: Test Example 6: efficacy on Phyllotreta striolata (spray, 125 ppm); details: sprayed to Qing geng cai seedlings, after 7 days
[4] = system: Nilaparvata lugens; test: Test Example 7: efficacy on Nilaparvata lugens (rice seedling dip); details: 125 ppm; young rice seedlings dipped 30 seconds; second instar larvae; after 7 days
[5] = system: Aphis gossypii; test: Test Example 9: efficacy on Aphis gossypii (hydroponic root uptake, cucumber); details: 31 ppm; hydroponic culture of cucumber seedlings; nymphs; after 6 days
[6] = system: Phyllotreta striolata adults; test: Test Example 10: efficacy on Phyllotreta striolata (spray, 31 ppm); details: sprayed to Qing geng cai seedlings, after 7 days
[7] = system: Mythimna separata; test: Test Example 2: efficacy on Mythimna separata (corn leaf dip); details: 125 ppm; corn leaves dipped; second instar larvae; after 6 days
[8] = system: Spodoptera litura; test: Test Example 4: efficacy on Spodoptera litura (cabbage leaf dip); details: 125 ppm; cabbage leaves dipped 30 seconds; second instar larvae; after 6 days

Measured: insecticidal rate

CCSc1cc(C2CC2)ccc1-c1ncc(C=C(Cl)C(F)(F)F)n1C (mixture of isomers) [d-6]
≥ 80%: [1]

CCS(=O)(=O)c1cc(C2CC2)ccc1-c1ncc(C=C(Cl)C(F)(F)F)n1C (mixture of isomers) [d-7]
≥ 80%: [2] | [1]

CCS(=O)(=O)c1cc(C2(C(N)=O)CC2)cnc1-c1ncc(C=C(Cl)C(F)(F)F)n1C (mixture of isomers) [d-17]
≥ 80%: [1]

CCS(=O)(=O)c1cc(C2(C(N)=S)CC2)cnc1-c1ncc(C=C(Cl)C(F)(F)F)n1C (mixture of isomers) [d-18]
not listed: [7] | [8]
≥ 80%: all other assays above

CCS(=O)(=O)c1cc(C2(C)CC2)cnc1-c1ncc(C=C(Cl)C(F)(F)F)n1C (mixture of isomers) [d-20]
≥ 80%: [2] | [1] | [3] | [6]

CCS(=O)(=O)c1cc(C2(c3ccccn3)CC2)cnc1-c1ncc(C=C(Cl)C(F)(F)F)n1C (mixture of isomers) [d-21]
≥ 80%: [2] | [1]

CCS(=O)(=O)c1cc(C2CC2)cnc1-c1ncc(C=C(Br)C(F)(F)F)n1C (mixture of isomers) [d-24]
≥ 80%: [2] | [1]

Cn1c(C=C(Cl)C(F)(F)F)cnc1-c1ncc(C2CC2)cc1S(C)(=O)=O (mixture of isomers) [d-28]
≥ 80%: [2]

CCS(=O)(=O)c1cc(C2CCCC2)cnc1-c1ncc(C=C(Cl)C(F)(F)F)n1C (mixture of isomers) [d-32]
≥ 80%: [1]

CCS(=O)(=O)c1cc(C2CC2)cnc1-c1ncc(C(F)=C(F)OC(F)(F)F)n1C (mixture of isomers) [d-37]
≥ 80%: [1]

CCS(=O)(=O)c1cc(C2CC2)cnc1-c1ncc(C=CC(F)(F)C(F)(F)F)n1C [d-1]
not listed: [8]
≥ 80%: all other assays above

CCS(=O)(=O)c1cc(C2CC2)ccc1-c1ncc(C=CC(F)(F)C(F)(F)C(F)(F)F)n1C [d-3]
≥ 80%: [1]

CCS(=O)(=O)c1cc(C2CC2)cnc1-c1ncc(C=CC(F)(F)C(F)(F)C(F)(F)C(F)(F)F)n1C [d-4]
≥ 80%: [2] | [1] | [3] | [6]

CCS(=O)(=O)c1cc(C2CC2)ccc1-c1ncc(C=CC(F)(F)C(F)(F)F)n1C [d-5]
≥ 80%: [1]

CCS(=O)(=O)c1cc(C2CC2)cnc1-c1ncc(C=C(Cl)Cl)n1C [d-8]
≥ 80%: [1]

CCS(=O)(=O)c1cc(C2CC2)cnc1-c1ncc(C=C(F)C(F)(F)C(F)(F)F)n1C [d-9]
≥ 80%: [2] | [3] | [4] | [5] | [6]

CCS(=O)(=O)c1cc(C2CC2)cnc1-c1ncc(/C=C(/F)C(F)(F)C(F)(F)F)n1C [d-10]
≥ 80%: [2] | [3] | [6]

CCS(=O)(=O)c1cc(C2CC2)cnc1-c1ncc(C=C(F)Br)n1C [d-11]
≥ 80%: [1]

CCS(=O)(=O)c1cc(C2CC2)cnc1-c1ncc(C=C(Cl)C(F)(F)C(F)(F)F)n1C [d-12]
≥ 80%: [2] | [8] | [1] | [3] | [6]

CCS(=O)(=O)c1cc(C2CC2)cnc1-c1ncc(C=C(Cl)C(F)(F)C(F)(F)C(F)(F)F)n1C [d-13]
≥ 80%: [2] | [1] | [3] | [4] | [6]

CCS(=O)(=O)c1cc(C2(C#N)CC2)cnc1-c1ncc(C=C(Cl)C(F)(F)F)n1C [d-15, 1-(6-(5-(2-chloro-3,3,3-trifluoroprop-1-en-1-yl)-1-methyl-1H-imidazol-2-yl)-5-(ethylsulfonyl)pyridin-3-yl)cyclopropane-1-carbonitrile]
≥ 80%: all assays above

CCS(=O)(=O)c1cc(C2(C#N)CC2)cnc1-c1ncc(C=CC(F)(F)F)n1C [d-16]
≥ 80%: [1]

CCS(=O)(=O)c1cc(C2(C#N)CC2)cnc1-c1ncc(C=CC(F)(F)C(F)(F)F)n1C [d-22]
≥ 80%: [2] | [1] | [3] | [4] | [6]

CCS(=O)(=O)c1cc(C2(C#N)CC2)cnc1-c1ncc(C=CC(F)(F)C(F)(F)C(F)(F)F)n1C [d-23]
≥ 80%: [2] | [1] | [3] | [4] | [6]

CCS(=O)(=O)c1cc(C2CC2)cnc1-c1ncc(C=CC(F)(F)C(F)(F)C(F)(F)F)n1C [d-25]
≥ 80%: [2] | [1] | [3] | [4] | [6]

CCS(=O)(=O)c1cc(C2(C)CC2)cnc1-c1ncc(C=CC(F)(F)C(F)(F)F)n1C [d-26]
≥ 80%: [2] | [3] | [4] | [5] | [6]

CCS(=O)(=O)c1cc(C2CC2)cnc1-c1ncc(C=C(F)C(F)(F)C(F)(F)C(F)(F)F)n1C [d-27]
≥ 80%: [2] | [1] | [3] | [5] | [6]

CCS(=O)(=O)c1cc(C2(C)CC2)cnc1-c1ncc(C=CC(F)(F)C(F)(F)C(F)(F)F)n1C [d-29]
≥ 80%: [2] | [1] | [3] | [6]

Cn1c(C=C(Cl)C(F)(F)C(F)(F)F)cnc1-c1ncc(C2CC2)cc1S(C)(=O)=O [d-30]
≥ 80%: [2] | [1] | [4]

CCS(=O)(=O)c1cc(C2(C)CC2)cnc1-c1ncc(C=C(F)C(F)(F)C(F)(F)F)n1C [d-31]
≥ 80%: [2] | [3] | [4]

CCS(=O)(=O)c1cc(C2CC2)cnc1-c1ncc(C=C(Cl)C(F)(F)F)n1C [d-33]
≥ 80%: [3] | [6]

CCS(=O)(=O)c1cc(C2CC2)cnc1-c1ncc(C(F)=C(F)OC(F)(F)C(F)(F)C(F)(F)F)n1C [d-35]
≥ 80%: [1]

CCS(=O)(=O)c1cc(C2CC2)c[n+]([O-])c1-c1ncc(C=C(F)C(F)(F)C(F)(F)F)n1C [e-1]
≥ 80%: [1]

CCS(=O)(=O)c1cc(C2CC2)cnc1-c1n(C)c(C=C(F)C(F)(F)C(F)(F)F)c[n+]1[O-] [e-2]
≥ 80%: [3] | [6]
